Data published in PMC4914337.
Results are given in words; binding and its absence hold for the method and conditions named. In cells and extracts the contact can be indirect. These calls come from enrichment with a bait or labelling near it, and not all partners need be listed.

Protein sequences, listed by entry. Tags and fused reporters are not part of them. Residues count along the entry.
UniProt P10451, residues 17-314: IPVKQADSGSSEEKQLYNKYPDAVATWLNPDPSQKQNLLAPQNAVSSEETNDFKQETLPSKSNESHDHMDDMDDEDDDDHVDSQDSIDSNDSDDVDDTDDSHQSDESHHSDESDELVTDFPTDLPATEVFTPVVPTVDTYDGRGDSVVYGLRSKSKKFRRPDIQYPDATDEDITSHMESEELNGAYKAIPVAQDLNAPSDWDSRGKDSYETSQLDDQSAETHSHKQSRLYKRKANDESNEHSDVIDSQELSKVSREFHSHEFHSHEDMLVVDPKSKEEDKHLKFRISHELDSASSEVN
UniProt P08670: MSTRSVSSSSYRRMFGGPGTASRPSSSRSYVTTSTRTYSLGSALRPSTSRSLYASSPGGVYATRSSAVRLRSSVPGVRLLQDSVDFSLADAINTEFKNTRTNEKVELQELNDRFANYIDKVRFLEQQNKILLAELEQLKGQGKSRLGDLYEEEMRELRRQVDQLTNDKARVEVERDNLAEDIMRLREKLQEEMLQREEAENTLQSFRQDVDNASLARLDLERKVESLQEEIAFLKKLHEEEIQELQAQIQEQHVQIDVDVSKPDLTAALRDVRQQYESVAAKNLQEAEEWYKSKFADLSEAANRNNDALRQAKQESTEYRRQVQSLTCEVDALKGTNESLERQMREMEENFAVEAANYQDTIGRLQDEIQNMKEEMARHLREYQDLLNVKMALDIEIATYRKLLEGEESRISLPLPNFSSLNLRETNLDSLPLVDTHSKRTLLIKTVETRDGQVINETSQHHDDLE

Molecular target: Flag-OPN (osteopontin) produced in Hep3B cells (UniProt P10451)
Assay: affinity purification with mass spectrometry; Flag-OPN expressed in Hep3B cells (empty vector as control); lysate in RIPA buffer on M2 anti-Flag mAb agarose beads; SDS-PAGE, Coomassie blue staining, band of interest cut out for MS

binding: binds
Substance: vimentin, endogenous in Hep3B cells (from UniProt P08670 1-466)
